PubChem BioAssay AID1259285 | Sanger Institute – 2017

Screen: 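Kinases needed for HCC56 growth and kinases whose loss boosts drug effects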 (primary screen)
Cell system: human HCC56 colorectal cancer cells
Knock-down reagent: siRNA pool against human genes
Challenge: DMSO vehicle, or anchor drug BYL719 at 1 µM, cetuximab at 5 µg/ml, or trametinib at 10 nM
Measurement: 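Viability as a ratio to non-targeting pool wells, averaged over replicates and turned into a robust z-score; synergy scores with BYL719, cetuximab or trametinib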
Scale: viability robust z-score, no drug: higher = more viable cells, weaker knock-down effect; viability vs non-targeting pool, no drug: higher = more viable cells; synergy score with BYL719: higher = stronger combined killing with BYL719; synergy score with cetuximab: higher = stronger combined killing with cetuximab; synergy score with trametinib: higher = stronger combined killing with trametinib
Rule for the call: 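Essential when the drug-free viability robust z-score falls below -3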
Calls: active = essential without drug; inactive = no change without drug
Here is an unselected part of 794 reagents. In the full data, 20 (2.5%) were called active. 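Calls rest on the drug-free arm alone and ignore synergy scores; viability ratios seem to be capped at 1.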 A number with no mark means an inactive call. Not given: the amount of reagent, the time to read-out.

| target gene | viability robust z-score, no drug | viability vs non-targeting pool, no drug | synergy score with BYL719 | synergy score with cetuximab | synergy score with trametinib |
| --- | --- | --- | --- | --- | --- |
| TSKS (testis specific serine kinase substrate) | 0.458 | 1 | -0.162 | -0.142 | -0.321 |
| MAP4K5 (mitogen-activated protein kinase kinase kinase kinase 5) | -1.01 | 0.874 | -0.0112 | -0.0698 | -0.0139 |
| PGK1 (phosphoglycerate kinase 1) | 0.458 | 1 | -0.162 | -0.142 | -0.045 |
| PIK3R5 (phosphoinositide-3-kinase regulatory subunit 5) | 0.458 | 1 | -0.00563 | -0.124 | 0.0316 |
| MAP4K2 (mitogen-activated protein kinase kinase kinase kinase 2) | 0.458 | 1 | 0.132 | 0.0312 | 0.0796 |
| DGKH (diacylglycerol kinase eta) | 0.144 | 0.973 | 0.021 | 0.0163 | 0.0749 |
| CSK (C-terminal Src kinase) | 0.458 | 1 | -0.162 | -0.142 | -0.163 |
| NPR2 (natriuretic peptide receptor 2) | 0.458 | 1 | -0.0931 | -0.0681 | -0.0589 |
| MAP2K1 (mitogen-activated protein kinase kinase 1) | 0.458 | 1 | -0.0726 | -0.13 | -0.151 |
| DNMT3A (DNA methyltransferase 3 alpha) | -0.52 | 0.916 | -0.232 | -0.214 | -0.322 |
| PIM2 (Pim-2 proto-oncogene, serine/threonine kinase) | 0.247 | 0.982 | 0.0942 | 0.0583 | 0.0214 |
| ITPKC (inositol-trisphosphate 3-kinase C) | 0.306 | 0.987 | 0.066 | 0.0579 | 0.00459 |
| DYRK2 (dual specificity tyrosine phosphorylation regulated kinase 2) | -0.234 | 0.941 | 0.0365 | 0.08 | 0.199 |
| SIK3 (SIK family kinase 3) | 0.458 | 1 | -0.0296 | -0.0911 | 0.0093 |
| CAMKK2 (calcium/calmodulin dependent protein kinase kinase 2) | -0.0838 | 0.953 | 0.0261 | -0.0703 | -0.127 |
| PMVK (phosphomevalonate kinase) | -1.22 | 0.856 | -0.0185 | 0.0284 | -0.045 |
| ADGRL2 (adhesion G protein-coupled receptor L2) | 0.458 | 1 | -0.131 | -0.0111 | -0.0433 |
| TNK2 (tyrosine kinase non receptor 2) | 0.458 | 1 | -0.162 | -0.142 | -0.138 |
| AURKC (aurora kinase C) | 0.458 | 1 | -0.162 | -0.135 | -0.0299 |
| FXN (frataxin) | 0.458 | 1 | -0.0287 | -0.0387 | -0.0167 |
| CILK1 (ciliogenesis associated kinase 1) | 0.458 | 1 | 0.0182 | 0.119 | 0.0892 |
| PRKD1 (protein kinase D1) | 0.458 | 1 | -0.0934 | -0.0527 | -0.0632 |
| HSPB8 (heat shock protein family B (small) member 8) | 0.458 | 1 | -0.162 | -0.142 | -0.0426 |
| CASK (calcium/calmodulin dependent serine protein kinase) | -1.6 | 0.823 | -0.0266 | -0.0826 | -0.00372 |
| CAMK1D (calcium/calmodulin dependent protein kinase ID) | 0.458 | 1 | 0.0075 | -0.0706 | 0.00641 |
| ITPKA (inositol-trisphosphate 3-kinase A) | 0.458 | 1 | 0.101 | 0.123 | 0.151 |
| SRGAP3 (SLIT-ROBO Rho GTPase activating protein 3) | 0.458 | 1 | -0.162 | -0.142 | -0.229 |
| MYO3A (myosin IIIA) | -1.92 | 0.795 | 0.0195 | 0.0242 | 0.0232 |
| AMER1 (APC membrane recruitment protein 1) | 0.458 | 1 | -0.0746 | -0.142 | 0.0274 |
| PXK (PX domain containing serine/threonine kinase like) | 0.458 | 1 | -0.0021 | 0.0892 | 0.082 |
| PANK2 (pantothenate kinase 2) | 0.458 | 1 | -0.162 | -0.142 | -0.083 |
| PAPSS2 (3'-phosphoadenosine 5'-phosphosulfate synthase 2) | 0.458 | 1 | -0.118 | -0.142 | -0.243 |
| LMTK1 (lemur tail kinase 1) | 0.458 | 1 | -0.162 | -0.142 | 0.0395 |
| HASPIN (histone H3 associated protein kinase) | 0.458 | 1 | 0.025 | -0.119 | 0.0291 |
| PNKP (polynucleotide kinase 3'-phosphatase) | -0.509 | 0.917 | -0.0676 | -0.149 | 0.0535 |
| MARK1 (microtubule affinity regulating kinase 1) | 0.315 | 0.988 | 0.148 | 0.147 | 0.00909 |
| SGK3 (serum/glucocorticoid regulated kinase family member 3) | -1.37 | 0.843 | -0.0851 | -0.0535 | -0.0137 |
| LMBR1 (limb development membrane protein 1) | 0.458 | 1 | -0.0566 | -0.142 | -0.0588 |

Next part; the last 8 above are carried over.
| target gene | viability robust z-score, no drug | viability vs non-targeting pool, no drug | synergy score with BYL719 | synergy score with cetuximab | synergy score with trametinib |
| --- | --- | --- | --- | --- | --- |
| PANK2 (pantothenate kinase 2) | 0.458 | 1 | -0.162 | -0.142 | -0.083 |
| PAPSS2 (3'-phosphoadenosine 5'-phosphosulfate synthase 2) | 0.458 | 1 | -0.118 | -0.142 | -0.243 |
| LMTK1 (lemur tail kinase 1) | 0.458 | 1 | -0.162 | -0.142 | 0.0395 |
| HASPIN (histone H3 associated protein kinase) | 0.458 | 1 | 0.025 | -0.119 | 0.0291 |
| PNKP (polynucleotide kinase 3'-phosphatase) | -0.509 | 0.917 | -0.0676 | -0.149 | 0.0535 |
| MARK1 (microtubule affinity regulating kinase 1) | 0.315 | 0.988 | 0.148 | 0.147 | 0.00909 |
| SGK3 (serum/glucocorticoid regulated kinase family member 3) | -1.37 | 0.843 | -0.0851 | -0.0535 | -0.0137 |
| LMBR1 (limb development membrane protein 1) | 0.458 | 1 | -0.0566 | -0.142 | -0.0588 |
| UCK2 (uridine-cytidine kinase 2) | 0.458 | 1 | -0.0662 | -0.0317 | -0.0162 |
| DLG2 (discs large MAGUK scaffold protein 2) | 0.458 | 1 | -0.038 | -0.0786 | 0.00892 |
| MASTL (microtubule associated serine/threonine kinase like) | 0.458 | 1 | 0.0741 | -0.00505 | 0.0254 |
| STK11 (serine/threonine kinase 11) | 0.458 | 1 | 0.00872 | -0.142 | -0.163 |
| CAMKK1 (calcium/calmodulin dependent protein kinase kinase 1) | 0.458 | 1 | 0.0104 | -0.0127 | 0.0267 |
| IKBKE (inhibitor of nuclear factor kappa B kinase subunit epsilon) | 0.337 | 0.99 | 0.0384 | -0.0238 | -0.061 |
| MARK3 (microtubule affinity regulating kinase 3) | 0.458 | 1 | 0.149 | 0.149 | 0.202 |
| MAP3K6 (mitogen-activated protein kinase kinase kinase 6) | 0.458 | 1 | -0.0375 | -0.142 | -0.0686 |
| CSNK1A1L (casein kinase 1 alpha 1 like) | 0.458 | 1 | -0.104 | -0.142 | -0.226 |
| GOLGA5 (golgin A5) | 0.453 | 1 | -0.133 | -0.0522 | -0.0206 |
| PIM1 (Pim-1 proto-oncogene, serine/threonine kinase) | 0.458 | 1 | 0.108 | -0.0872 | 0.175 |
| AK1 (adenylate kinase 1) | 0.391 | 0.994 | -0.0627 | 0.0142 | 0.0664 |
| TGFBR2 (transforming growth factor beta receptor 2) | 0.458 | 1 | -0.0175 | -0.0528 | 0.0708 |
| RNASEL (ribonuclease L) | 0.458 | 1 | -0.0916 | -0.142 | -0.0732 |
| DGKG (diacylglycerol kinase gamma) | 0.458 | 1 | -0.144 | -0.142 | -0.0915 |
| GUCY2F (guanylate cyclase 2F, retinal) | 0.458 | 1 | -0.0863 | -0.142 | -0.0417 |
| HK2 (hexokinase 2) | 0.458 | 1 | -0.0491 | 0.0208 | 0.0631 |
| TGFBR3 (transforming growth factor beta receptor 3) | 0.458 | 1 | -0.0495 | -0.0111 | -0.0276 |
| TPD52L3 (TPD52 like 3) | 0.458 | 1 | -0.162 | -0.142 | 0.0444 |
| CAMK2G (calcium/calmodulin dependent protein kinase II gamma) | -0.465 | 0.921 | 0.0887 | 0.1 | 0.0577 |
| DGKA (diacylglycerol kinase alpha) | -0.728 | 0.898 | -0.0206 | -0.0282 | -0.0113 |
| MOS (MOS proto-oncogene, serine/threonine kinase) | 0.458 | 1 | 0.0247 | -0.141 | 0.0191 |
| ADCK5 (aarF domain containing kinase 5) | 0.458 | 1 | -0.162 | -0.142 | -0.114 |
| RPS6KC1 (ribosomal protein S6 kinase C1) | 0.458 | 1 | 0.00644 | 0.101 | 0.00326 |
| PINK1 (PTEN induced kinase 1) | -1.12 | 0.864 | -0.00507 | -0.101 | 0.0114 |
